Source: patent publication US20220144921A1
Results are given in words; binding and its absence hold for the method and conditions named. Some results given as binding are weak or reduced against the parent protein; the word gives no strength.

B1: biotinylated MAb 6D4B10 (antibody, V domains shown)
VH: EVQLQQSGPELVKPGASVKMSCKASGYTFTSYVMHWVKQKPGQGLEWIGYLNPYNDDTKYNEKFKGKATLTSDKSSSTAYMELSSLTSEDSAVYYCAYGPPYALDYWGQGTSVTVSS
VL: QIVLTQSPAIMTASLGERVTMTCTASSSVSSSYLHWYQQKPGSSPKLWIYSTSNLASGVPARFSGSGSGTSYSLTISSMEAEDAATYYCHQYHRSPYTFGGGTKLEIK
B2: biotinylated MAb 8A6F2 (antibody, V domains shown)
VH: DVQLQESGPDLVKPSQSLSLTCTVTGYSITSGYNWHWIRQFPGNKLEWMGYIHYSGGTNYNPSLKSRISITRDTSKNQFFLQLNSVTTEDTATYYCARRTGTVPFAYWGQGTLVTVSA
VL: EIVLTQSPALMAASPGEKVTITCSVSSSISSSNLHWYQQKSETSPKPWIYGTSNLASGVPVRFSGSGSGTSYSLTISSMEAEDAATYYCQQWSSYPLTFGGGTKLEIK

Key:
[1] = molecular target: unfused recombinant non-structural protein 1 of DENV4 (Dengue virus serotype 4) (UniProt P09866); assay: NS1 capture ELISA, detection antibody
[2] = molecular target: native NS1 in culture supernatant of DENV4-infected Vero cells (Dengue virus serotype 4) (UniProt P09866); assay: NS1 capture ELISA, biotinylated 6D4B10 as detector antibody
[3] = molecular target: unfused recombinant non-structural protein 1 of DENV4 (Dengue virus serotype 4) (UniProt P09866); assay: as above
[4] = molecular target: unfused recombinant non-structural protein 1 of DENV4 (Dengue virus serotype 4) (UniProt P09866); assay: direct ELISA on coated DENV4 rNS1 (data not shown)

Binder | binding [1] | binding [2] | binding [3] | binding [4]
B1 | binds | binds | binds | 
B2 |  |  |  | binds
